“And” between values parts separate entries of the source, which are not always exact repeats. Equal entries are not always repeated. Among all 390,000 compounds or so, about 610 (0.16%) were called active. This list was built around the results that the source calls inconclusive (neither active nor inactive); the mix of calls is not that of the screen. Calls come from the whole dose curve; as a rule, active = well fitted inhibition curve with a large enough effect; inconclusive = small, poorly fitted or top-dose-only effect, or effect the other way, or another doubt; inactive = no such curve, though single readings can be large or run the other way. Potencies beside an inconclusive call are fits to weak or partial responses and may not hold up.
Assay: Nrf2 qHTS screen for inhibitors: counterscreen for cytotoxicity
Conditions: A549 ARE-Fluc cells, CellTiter-Fluor viability, 18-24 h; series mostly up to 46 µM
In short: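 A549 ARE_Fluc cells in 5% FBS OPTI-MEM were exposed to compounds in concentration-response for 18-24 h at 37 deg C. Viability was read by CellTiter-Fluor fluorescence (Ex 405/Em 525) after 30 min, before the luciferase read.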
With `Cc1nc2nc(CNC(=O)c3cccc(F)c3)nn2c(C)c1CCC(=O)Nc1cccc(Cl)c1` the Potency was “inactive”. With `CCOC(=O)c1ccccc1OC(=O)Oc1ccccc1C(=O)OCC` the Potency was inconclusive: 23.1 µM [falling, partial curve, poor fit]. For `COc1cc(/C=C2\NC(=S)N(C)C2=O)ccc1O`, the Potency was inconclusive: 23.1 µM [falling, partial curve, poor fit]. In the case of `CN1Cc2c(N3CCOCC3)nc3sc(C(=O)c4ccccc4)c(N)c3c2CC1(C)C`, the Potency was “inactive”. For `O=C(COC(=O)C1(c2ccc(F)cc2)CCCC1)Nc1ncc(C(F)(F)F)cc1Cl`, the Potency was inconclusive: 32.6 µM [falling, partial curve, poor fit]. For `Cc1ccc(S(=O)(=O)/N=C(/Nc2ccccc2C)c2ccccc2)cc1`, the Potency was “inactive”. With `CCCn1c(SCC(=O)Nc2nc(-c3ccc(OC)cc3)cs2)nc2c1c(=O)n(C)c(=O)n2C` the Potency was “inactive”. For `O=C(Nc1ncccn1)c1ccc([N+](=O)[O-])o1`, the Potency was inconclusive: 20.6 µM [falling, single point]. In the case of `COCCCNC(=O)c1cnc2sc(N3CCCCC3)nn2c1=O`, the Potency was “inactive”. For `CCOc1cc(/C=C(/C#N)C(=O)Nc2ccc(O)cc2)cc(Br)c1O`, the Potency was inconclusive: 8.2 µM [falling, partial curve, poor fit]. With `Cc1cccc(-c2nc3nc(C)cc(NC(C)c4ccccc4)n3n2)c1` (stereo not drawn) the Potency was inconclusive: 8.2 µM [falling, partial curve, poor fit]. In the case of `Cc1cc(N2CCN(S(=O)(=O)c3ccc(C)c(C)c3)CC2)c2ccccc2n1`, the Potency was inconclusive: 29.1 µM [falling, single point]. In the case of `Cc1ccc2c(Cl)cc(Cl)c(OCC(=O)Nc3cccc(S(=O)(=O)N(C)C)c3)c2n1`, the Potency was “inactive”. With `CCOc1ccc(NC(=O)Cn2nnc(-c3nc(-c4ccncc4)no3)c2N)cc1` the Potency was “inactive”. For `N#C/C(=N\Nc1ccc(S(=O)(=O)N2CCCCCC2)cc1)C(N)=S`, the Potency was inconclusive: 14.6 µM [falling, partial curve, poor fit]. For `CN1C(N)=NC(=O)/C1=C/c1ccc(OC(F)(F)F)cc1`, the Potency was inconclusive: 18.4 µM [activator, partial curve, poor fit]. For `CCn1c(=O)c(C(=O)NCCN2CCCCC2)c(O)c2ccccc21`, the Potency was inconclusive: 7.31 µM [activator, partial curve]. For `CCn1c(=O)c2cc(C(=O)N(C)c3ccccc3F)sc2c2ccccc21`, the Potency was “inactive”. In the case of `CCC(=O)Oc1ccc(C(=O)Nc2ccc3c(c2)C(=O)N(C2CCCCC2)C3=O)cc1`, the Potency was inconclusive: 8.2 µM [falling, single point]. For `CCOC(=O)C1CCN(C(=O)c2c(C)oc3c2C(=O)c2ccccc2C3=O)CC1`, the Potency was inconclusive: 29.1 µM [falling, single point]. For `O=C(Nc1ccc([N+](=O)[O-])cc1)Nc1ccc(Cl)cc1F`, the Potency was inconclusive: 29.1 µM [falling, single point]. In the case of `Cc1cc(C)c(NC(=O)CSc2nnnn2-c2cccnc2)c(C)c1`, the Potency was “inactive”. For `C=CCC[C@@H](Cc1ccc(F)cc1)C(=O)OC[C@@H]1CCCN1C(=O)[C@@H](CC=C)CC(=O)N(CCO)Cc1ccccc1`, the Potency was inconclusive: 23.1 µM [falling, single point]. For `COc1cccc(NC(=S)N2CCN(c3ccc([N+](=O)[O-])cc3)CC2)c1`, the Potency was inconclusive: 20.6 µM [falling, partial curve, poor fit]. For `CSc1ccc(CCNC(=O)CCCn2c(=O)c3cccn3c3ccccc32)cc1`, the Potency was inconclusive: 29.1 µM [falling, single point]. For `CC1CCCCC1NC(=O)/C(C#N)=C/C=C/c1ccccc1[N+](=O)[O-]` (stereo not drawn), the Potency was inconclusive: 29.1 µM [falling, single point]. In the case of `CCOc1ccc2nc(NC(=O)c3cccc(-c4cc5ccccc5oc4=O)c3)sc2c1`, the Potency was inconclusive: 29.1 µM [falling, single point]. For `O=c1[nH]c(CN2CCN(c3ccc(O)cc3)CC2)nc2scc(-c3ccc(Cl)cc3)c12`, the Potency was inconclusive: 10.3 µM [falling, partial curve, poor fit]. For `Cc1cc([N+](=O)[O-])ccc1-c1ccc(/C=N/NC(=O)c2ccc(Br)o2)o1`, the Potency was inconclusive: 29.1 µM [falling, single point]. With `CCOc1ccc(/C=C/C(=O)Nc2ccc3nc(N(CC)CC)cc(C)c3c2)cc1OC` the Potency was inconclusive: 29.1 µM [falling, single point]. In the case of `COCC1CCCCN1Cc1cn[nH]c1-c1ccc2cc(OC)ccc2c1` (stereo not drawn), the Potency was inconclusive: 23.1 µM [activator, partial curve, poor fit]. For `Cc1ccc(CS(=O)(=O)c2ncc(Cl)c(C(=O)Nc3nnc(C(C)C)s3)n2)cc1`, the Potency was inconclusive: 29.1 µM [falling, single point] and inconclusive: 25.9 µM [falling, single point]. For `CC(C)CCNC(=O)C1CCN(C(=O)c2cc3sccc3n2Cc2ccc(Cl)cc2)CC1`, the Potency was inconclusive: 25.9 µM [falling, single point]. For `O=C(CCc1nc(-c2ccccc2)no1)Nc1cccc(C(=O)NC2CC2)c1`, the Potency was inconclusive: 1.84 µM [activator, full curve, poor fit]. With `CN1C(=O)C2(c3ccccc31)N(c1cccc(C(F)(F)F)c1)C(=O)CS2(=O)=O` (stereo not drawn) the Potency was “inactive”. With `Cn1cnc([N+](=O)[O-])c1S(=O)(=O)c1ccc(Cl)cc1` the Potency was inconclusive: 16.4 µM [falling, single point]. For `N#Cc1cc(C(=O)c2cc(Br)ccc2O)cn(C2CCCCC2)c1=O`, the Potency was inconclusive: 13 µM [falling, partial curve, poor fit]. With `CCOC(=O)N1CCN(C(=O)c2oc3ccc(S(=O)(=O)N4CCCCC4)cc3c2C)CC1` the Potency was “inactive”. In the case of `COC(=O)c1sccc1S(=O)(=O)N(CC(=O)Nc1cccc(C)c1C)c1ccc(C)c(C)c1`, the Potency was “inactive”. For `COc1ccc(Cn2c(CO)cnc2SCc2ccc(C)cc2)cc1`, the Potency was “inactive”. With `COc1ccc(Cl)cc1N1CCN(CCNC(=O)Nc2ccccc2C)CC1` the Potency was inconclusive: 25.9 µM [falling, partial curve, poor fit]. In the case of `CCc1cccc(C)c1NC(=O)CSc1nc2ccccc2nc1Cc1ccccc1`, the Potency was “inactive”. In the case of `COc1ccc2c(c1)[N+](C)(C)C(C)(C)C=C2C`, the Potency was “inactive”. With `CC1=NOC(=O)/C1=C/c1ccc(O)c(Br)c1` the Potency was “inactive”. In the case of `COc1ccc(/C=C2\Oc3cc(OCC(=O)N4CCC[C@H]4C(=O)O)ccc3C2=O)cc1OC`, the Potency was inconclusive: 20.6 µM [falling, partial curve, poor fit]. With `Cc1ccc(-c2cc(-c3ccccc3Cl)c(C#N)c(N)n2)o1` the Potency was inconclusive: 32.6 µM [falling, partial curve, poor fit]. In the case of `CCCCCCCN(c1ccccc1)[C@@H]1C[C@H]2CCCC(=O)N3CC[C@@H](C1)[C@@H]23`, the Potency was inconclusive: 29.1 µM [falling, single point]. For `O=C(C1=C[C@H](c2ccc(C(F)(F)F)cc2)C[C@H](OCc2ccc(CO)cc2)O1)N1CCN(Cc2ccccc2)CC1`, the Potency was inconclusive: 32.6 µM [falling, partial curve, poor fit]. For `CC(C)C[C@H](NC(=O)OC(C)(C)C)C(=O)N/N=C/C1=Cc2ccccc2OC1C` (stereo partly drawn), the Potency was inconclusive: 23.1 µM [falling, single point]. With `CN(C)c1ccc(/C=C/C=C2/SC(=S)N(c3ccccc3)C2=O)cc1` the Potency was inconclusive: 3.26 µM [falling, full curve]. In the case of `CC(=O)Nc1ccc(S(=O)(=O)NCc2ccc(C(=O)NC(C)c3ccccc3)cc2)cc1` (stereo not drawn), the Potency was inconclusive: 25.9 µM [activator, partial curve, poor fit]. For `O=C(Nc1cc(Cl)cc2c1-c1ccc(Cl)cc1C2O)C(Cl)Cl` (stereo not drawn), the Potency was inconclusive: 29.1 µM [falling, single point]. With `Cc1ccc(OCC(=O)N2CCN(c3nnc(-c4ccc(C)cc4)c4ccccc34)CC2)cc1` the Potency was inconclusive: 29.1 µM [falling, single point]. With `O=C(/C(=C/O)N=Nc1ccccc1)c1ccc(Cl)cc1` the Potency was inconclusive: 25.9 µM [falling, partial curve, poor fit]. With `COc1ccc(-c2c(C)c3ccc(O)c(CN4CCCC4)c3oc2=O)cc1` the Potency was inconclusive: 23.1 µM [activator, partial curve, poor fit]. For `C=CCNc1ncnc2c1[nH]c1ccc(C)cc12`, the Potency was inconclusive: 29.1 µM [falling, single point]. In the case of `CCN(CC)CCSc1nnc2c3cc(F)ccc3n(CC)c2n1`, the Potency was “inactive”. In the case of `Cc1onc(-c2c(Cl)cccc2Cl)c1C(=O)Nc1c(C)n(C)n(-c2ccccc2)c1=O`, the Potency was inconclusive: 32.6 µM [activator, partial curve, poor fit]. With `Cc1c(Cl)cccc1NC(=O)Nc1ccc2snnc2c1` the Potency was inconclusive: 18.4 µM [falling, single point]. With `CCCC(=O)Nc1ccc2nc(SCC(=O)Nc3ccc(N4CCOCC4)c(Cl)c3)sc2c1` the Potency was inconclusive: 20.6 µM [falling, partial curve, poor fit]. With `CNC(=O)c1c(NC(=O)c2ccc(S(=O)(=O)N(C)c3ccccc3)cc2)sc2c1CCN(C(C)C)C2` the Potency was inconclusive: 32.6 µM [falling, partial curve, poor fit]. With `CCN(CC)CCOCCOc1cc(C)c(Cl)c(C)c1` the Potency was inconclusive: 18.4 µM [activator, partial curve, poor fit]. For `N#C/C(=C\c1cc(Br)c(O)c(Br)c1)c1nc2ccccc2c(=O)[nH]1`, the Potency was “inactive”.

Reference: PubChem BioAssay AID504648 (National Center for Advancing Translational Sciences (NCATS), 2011)
Potency is the fitted concentration of half-maximal effect.
